Source: PubChem BioAssay AID504467 (National Center for Advancing Translational Sciences (NCATS), 2011)
The whole screen tested about 330,000 compounds, of which about 7,700 (2.3%) were called active. Inconclusive results, whose numbers are uncertain, are shown with a selection of clear calls. Calls follow the shape of the dose curve; as a rule, active = well fitted inhibition curve with a large enough effect; inconclusive = small, poorly fitted or top-dose-only effect, or effect the other way; inactive = flat fitted curve, though single readings scatter. Potencies beside an inconclusive call are fits to weak or partial responses and may not hold up.

Test: qHTS screen for small molecules that inhibit ELG1-dependent DNA repair in human embryonic kidney (HEK293T) cells expressing luciferase-tagged ELG1; also: nearly all actives have a fitted effect of over 55% in size
Details: HEK293T ELG1-luciferase reporter, luminescence, 16 h, DNA damage induced by 5-fluorouridine; series mostly up to 46.1 µM
In short: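 Step one: seed 2,000 cells per well. Step two: pin-transfer compound or DMSO alongside 5-fluorouridine. Step three: incubate 16 hr, 37 °C, 5% CO2. Step four: add ONE-Glo, wait 30 min, read luminescence.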
Potency is read from the fitted curve at half-maximal effect.

Question: For Cc1nc(N2CCCCC2)c2ccsc2n1, which Potency is on record?
Answer: inconclusive: 18.4 µM [inhibitor, partial curve]

Question: Which Potency does the source give for Cc1c(C(=O)Nc2ccc3c(c2)OCCO3)sc2ncnc(N3CCCCC3C)c12 (stereo unspecified) here?
Answer: inconclusive: 29.1 µM [inhibitor, single point]

Question: With Cc1nc(N2CCCCC2)sc1C(=O)c1ccc(SCCO)c([N+](=O)[O-])c1 as the compound, how does the Potency read?
Answer: active: 18.3 µM

Question: For Cc1ccc(C(=O)NCc2ccccn2)c(Cl)c1, which Potency is on record?
Answer: inconclusive: 16.4 µM [activator, partial curve]

Question: With O=C(CC1SCCNC1=O)Nc1cccc(Cl)c1 (stereo unspecified) as the compound, how does the Potency read?
Answer: inconclusive: 29.1 µM [activator, single point]

Question: With COn1c(-n2nc(C)cc2C)nc2ccccc2c1=O as the compound, how does the Potency read?
Answer: inactive

Question: For Cc1[nH]cnc1C(=O)N/N=C/c1c(Cl)cccc1Cl, which Potency is on record?
Answer: inconclusive: 13 µM [activator, partial curve]

Question: Which Potency does the source give for Cc1ccc(OCC(=O)N/N=C\c2ccco2)c(C)c1 here?
Answer: inactive

Question: With COc1ccc(C2C(=O)c3ccccc3C2=O)cc1OC as the compound, how does the Potency read?
Answer: inconclusive: 29.1 µM [activator, single point]

Question: With O=C(COC(=O)c1ccc(O)cc1O)c1ccc(Cl)cc1 as the compound, how does the Potency read?
Answer: inconclusive: 18.3 µM [activator, partial curve, poor fit]

Question: For COc1ccc2c(c1OC)C(=O)N(c1ccccn1)C2, which Potency is on record?
Answer: inconclusive: 4.11 µM [activator, partial curve]

Question: Which Potency does the source give for N#CCC(=O)NNC(=S)Nc1ccccc1C(F)(F)F here?
Answer: inconclusive: 29.1 µM [inhibitor, single point]

Question: With COc1nc(N/N=C/c2ccc(-c3ccccc3[N+](=O)[O-])o2)nc(N2CCOCC2)n1 as the compound, how does the Potency read?
Answer: inconclusive: 29.1 µM [inhibitor, single point]

Question: With CCCn1c2ccccc2c2cn[nH]c(=O)c21 as the compound, how does the Potency read?
Answer: inconclusive: 6.51 µM [inhibitor, partial curve, poor fit]

Question: For CCOc1ccc(C2c3[nH]c4ccccc4c3C[C@H]3C(=O)N(C4CC4)CC(=O)N23)cc1OC (stereo partly specified), which Potency is on record?
Answer: inconclusive: 29.1 µM [inhibitor, single point]

Question: Which Potency does the source give for CCCN1C(=O)/C(=C\C=C2/C=CN(CC)c3ccccc32)SC1=S here?
Answer: inactive

Question: For Cc1ccc(NC(=O)Nc2nnc(CSCCOc3ccc(Cl)cc3)s2)cc1, which Potency is on record?
Answer: inconclusive: 1.03 µM [inhibitor, partial curve, poor fit]

Question: For COc1ccc(-c2ccc(C#N)c(SCC(=O)NCc3ccco3)n2)cc1OC, which Potency is on record?
Answer: inconclusive: 7.3 µM [inhibitor, partial curve]

Question: With CC(NC(=O)c1cc(-c2cccs2)on1)c1ccccc1 (stereo unspecified) as the compound, how does the Potency read?
Answer: inconclusive: 4.11 µM [activator, partial curve, poor fit]

Question: For O=c1cc(N2CCCC2)[nH]c(=O)n1-c1ccc(Cl)cc1, which Potency is on record?
Answer: inconclusive: 16.4 µM [activator, single point]

Question: With Cc1cc(=O)oc2cc(OC(C)C(=O)N3CCOCC3)ccc12 (stereo unspecified) as the compound, how does the Potency read?
Answer: inactive

Question: With CCOC(=O)C1(CC2CCCCO2)CCN(C(=O)Nc2cccc(SC)c2)CC1 (stereo unspecified) as the compound, how does the Potency read?
Answer: inconclusive: 16.4 µM [inhibitor, partial curve, poor fit]

Question: Which Potency does the source give for CCCCN(CC)c1nc(-c2ccncc2)nc2ccccc12 here?
Answer: active: 23.1 µM

Question: For CN1CC(=O)N(CC(=O)Nc2cc(Cl)cc(Cl)c2)C1=O, which Potency is on record?
Answer: inactive

Question: For Cc1ccc(NCC(=O)N/N=C/c2cccc(Br)c2)cc1, which Potency is on record?
Answer: inconclusive: 1.16 µM [inhibitor, single point]

Question: With C/C(=N\N=c1/sc2ccccc2n1C)c1ccccn1 as the compound, how does the Potency read?
Answer: inconclusive: 18.3 µM [activator, partial curve]

Question: For Clc1ccc(SCc2csc(N3CCOCC3)n2)cc1, which Potency is on record?
Answer: inconclusive: 25.9 µM [activator, single point]

Question: For COc1ccc(-c2ccc(-c3noc(C4CCCCC4)n3)c(OC)n2)cc1, which Potency is on record?
Answer: inactive

Question: With COc1ccnc(Oc2ccc(F)cc2)c1C(=O)N/C=N/OCc1c(Cl)cccc1Cl as the compound, how does the Potency read?
Answer: inconclusive: 29.1 µM [inhibitor, single point]

Question: With CCO[C@H]1OC(C(=O)N2CCCCCCC2)=C[C@@H](C2CCCCC2)[C@@H]1CCCO as the compound, how does the Potency read?
Answer: inactive

Question: With COc1cc(CNc2ccccc2SC)ccc1O as the compound, how does the Potency read?
Answer: inconclusive: 16.4 µM [activator, partial curve, poor fit]

Question: Which Potency does the source give for CCOC(=O)C1=CN(Cc2ccco2)S(=O)(=O)N(C)C1c1ccc2ccccc2c1 (stereo unspecified) here?
Answer: inactive

Question: Which Potency does the source give for CCOc1ccc(NC(=O)CSc2nc3ccccc3nc2N2CCCC2)cc1 here?
Answer: inactive

Question: Which Potency does the source give for O=C(COc1cccc2cccnc12)N/N=C/c1cccn1-c1ccc(F)cc1 here?
Answer: inconclusive: 29.1 µM [inhibitor, single point]

Question: Which Potency does the source give for CC#CC[N+](C)(C)CCCCCCCC here?
Answer: inconclusive: 25.9 µM [inhibitor, partial curve]

Question: With Cc1cc(C)n2nc(SCc3nnc(SCc4ccccc4)s3)nc2n1 as the compound, how does the Potency read?
Answer: inactive

Question: With CC1CCCCC1NC(=S)NC(=O)c1cccs1 (stereo unspecified) as the compound, how does the Potency read?
Answer: inactive

Question: For Cc1ccc(S(=O)(=O)NCC(=O)OCC(=O)N2CCc3ccccc32)cc1, which Potency is on record?
Answer: inconclusive: 25.9 µM [activator, partial curve, poor fit]

Question: For O=C(NC(=S)Nc1ncccn1)c1ccccc1Cl, which Potency is on record?
Answer: inconclusive: 20.6 µM [activator, partial curve]

Question: With CC1(C)CC2CC(C)(CN2S(=O)(=O)c2ccc(F)cc2F)C1 (stereo unspecified) as the compound, how does the Potency read?
Answer: inactive

Question: With CCOc1cc(C(=S)N2CCOCC2)ccc1OC(=O)c1cccc(C)c1 as the compound, how does the Potency read?
Answer: inconclusive: 29.1 µM [inhibitor, single point]

Question: With O=C(/C=C/c1ccc(Br)o1)Nc1nccs1 as the compound, how does the Potency read?
Answer: inconclusive: 2.59 µM [activator, full curve]

Question: For O=C(Nc1ccc(Cl)c(S(=O)(=O)N2CCOCC2)c1)c1ccccc1-c1ccc(C(F)(F)F)cc1, which Potency is on record?
Answer: active: 23.1 µM

Question: Which Potency does the source give for COc1ccc(C(=O)NC(=S)NNC(=O)c2cnccn2)cc1 here?
Answer: inconclusive: 5.17 µM [inhibitor, partial curve]

Question: With COc1cccc(N2CCN(C(=O)c3[nH]c(C)c(C(C)=O)c3C)CC2)c1 as the compound, how does the Potency read?
Answer: inactive

Question: Which Potency does the source give for Cn1cccc1Cc1nnc(SCC(=O)N2CCc3ccccc32)n1CCc1ccccc1 here?
Answer: inconclusive: 20.6 µM [inhibitor, single point]
